This note sets out measurements from the supplement of paper PMC11732987, “Enantioselective OTUD7B fragment discovery through chemoproteomics screening and high-throughput optimisation” (Communications Chemistry, 2025).

Sequences of proteins named here, by UniProt entry; tags and fusion partners are left off. A change or cut given only in a name is not applied to a line headed by its entry.
UniProt Q7Z628: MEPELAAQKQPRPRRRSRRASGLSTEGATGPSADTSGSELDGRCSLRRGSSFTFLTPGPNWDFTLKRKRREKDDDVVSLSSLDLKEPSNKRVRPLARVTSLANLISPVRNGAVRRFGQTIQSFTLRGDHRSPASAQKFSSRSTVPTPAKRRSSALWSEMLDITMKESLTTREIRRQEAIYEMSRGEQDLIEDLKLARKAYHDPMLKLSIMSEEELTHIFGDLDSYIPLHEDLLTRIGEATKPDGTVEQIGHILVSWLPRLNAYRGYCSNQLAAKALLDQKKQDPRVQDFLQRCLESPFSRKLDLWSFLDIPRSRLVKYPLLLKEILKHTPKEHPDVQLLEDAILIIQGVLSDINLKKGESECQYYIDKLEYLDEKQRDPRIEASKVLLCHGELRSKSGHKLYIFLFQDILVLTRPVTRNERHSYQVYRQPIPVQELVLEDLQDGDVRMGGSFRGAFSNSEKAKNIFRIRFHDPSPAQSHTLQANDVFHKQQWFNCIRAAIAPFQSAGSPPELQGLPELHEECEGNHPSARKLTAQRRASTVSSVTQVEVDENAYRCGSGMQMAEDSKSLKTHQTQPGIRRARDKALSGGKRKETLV
UniProt Q9Y6Q9: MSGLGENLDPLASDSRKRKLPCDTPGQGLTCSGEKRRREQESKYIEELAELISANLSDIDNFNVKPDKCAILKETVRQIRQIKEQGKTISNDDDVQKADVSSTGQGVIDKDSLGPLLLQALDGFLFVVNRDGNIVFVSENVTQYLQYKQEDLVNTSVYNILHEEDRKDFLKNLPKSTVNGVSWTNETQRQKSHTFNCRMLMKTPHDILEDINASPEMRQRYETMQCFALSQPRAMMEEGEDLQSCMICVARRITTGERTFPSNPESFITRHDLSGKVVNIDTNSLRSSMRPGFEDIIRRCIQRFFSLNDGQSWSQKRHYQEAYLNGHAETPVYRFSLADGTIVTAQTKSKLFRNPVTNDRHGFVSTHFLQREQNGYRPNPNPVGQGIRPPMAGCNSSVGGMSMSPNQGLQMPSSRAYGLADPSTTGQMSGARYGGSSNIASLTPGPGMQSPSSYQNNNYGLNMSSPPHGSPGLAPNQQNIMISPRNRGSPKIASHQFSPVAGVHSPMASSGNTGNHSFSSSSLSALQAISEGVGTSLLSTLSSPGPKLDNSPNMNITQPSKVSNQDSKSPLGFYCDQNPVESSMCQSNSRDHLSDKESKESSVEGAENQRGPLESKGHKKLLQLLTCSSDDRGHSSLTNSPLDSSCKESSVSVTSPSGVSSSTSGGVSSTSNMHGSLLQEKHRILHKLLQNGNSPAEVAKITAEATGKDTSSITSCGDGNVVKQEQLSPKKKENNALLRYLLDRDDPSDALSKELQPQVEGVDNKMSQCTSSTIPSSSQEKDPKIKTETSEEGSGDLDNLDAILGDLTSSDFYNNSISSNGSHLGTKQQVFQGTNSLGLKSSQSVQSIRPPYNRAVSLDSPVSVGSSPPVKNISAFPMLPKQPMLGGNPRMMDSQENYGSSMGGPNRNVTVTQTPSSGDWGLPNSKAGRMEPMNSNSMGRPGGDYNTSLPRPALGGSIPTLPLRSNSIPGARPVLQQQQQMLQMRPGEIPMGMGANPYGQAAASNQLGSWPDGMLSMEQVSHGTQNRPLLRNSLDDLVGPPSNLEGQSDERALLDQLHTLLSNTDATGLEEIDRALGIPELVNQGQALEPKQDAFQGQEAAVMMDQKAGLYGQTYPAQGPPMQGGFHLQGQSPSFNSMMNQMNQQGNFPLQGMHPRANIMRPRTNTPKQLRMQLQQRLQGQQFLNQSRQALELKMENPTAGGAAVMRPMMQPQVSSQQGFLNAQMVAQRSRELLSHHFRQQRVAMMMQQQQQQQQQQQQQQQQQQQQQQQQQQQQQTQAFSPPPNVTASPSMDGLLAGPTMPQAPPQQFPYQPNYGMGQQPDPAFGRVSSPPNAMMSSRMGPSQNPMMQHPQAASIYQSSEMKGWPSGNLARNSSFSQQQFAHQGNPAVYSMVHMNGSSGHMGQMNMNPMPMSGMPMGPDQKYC
UniProt Q9BYG3: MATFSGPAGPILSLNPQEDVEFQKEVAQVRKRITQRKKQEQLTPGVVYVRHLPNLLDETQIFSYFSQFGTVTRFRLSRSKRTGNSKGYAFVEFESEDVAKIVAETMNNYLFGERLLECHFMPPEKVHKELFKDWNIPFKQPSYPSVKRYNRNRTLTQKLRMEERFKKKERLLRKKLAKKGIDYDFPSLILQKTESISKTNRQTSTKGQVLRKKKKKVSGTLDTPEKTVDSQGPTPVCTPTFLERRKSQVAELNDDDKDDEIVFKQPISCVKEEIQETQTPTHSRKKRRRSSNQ
UniProt Q9UK39: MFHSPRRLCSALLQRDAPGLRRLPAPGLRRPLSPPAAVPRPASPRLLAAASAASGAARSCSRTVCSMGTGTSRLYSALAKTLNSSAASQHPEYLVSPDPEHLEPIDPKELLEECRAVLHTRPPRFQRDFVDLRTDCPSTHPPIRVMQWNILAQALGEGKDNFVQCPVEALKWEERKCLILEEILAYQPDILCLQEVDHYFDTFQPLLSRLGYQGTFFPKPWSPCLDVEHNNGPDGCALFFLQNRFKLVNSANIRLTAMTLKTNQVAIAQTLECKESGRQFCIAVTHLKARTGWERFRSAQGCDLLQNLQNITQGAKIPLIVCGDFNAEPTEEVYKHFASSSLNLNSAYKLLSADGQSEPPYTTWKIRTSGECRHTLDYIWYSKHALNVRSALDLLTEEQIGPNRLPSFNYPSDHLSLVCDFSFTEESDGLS
UniProt O94916: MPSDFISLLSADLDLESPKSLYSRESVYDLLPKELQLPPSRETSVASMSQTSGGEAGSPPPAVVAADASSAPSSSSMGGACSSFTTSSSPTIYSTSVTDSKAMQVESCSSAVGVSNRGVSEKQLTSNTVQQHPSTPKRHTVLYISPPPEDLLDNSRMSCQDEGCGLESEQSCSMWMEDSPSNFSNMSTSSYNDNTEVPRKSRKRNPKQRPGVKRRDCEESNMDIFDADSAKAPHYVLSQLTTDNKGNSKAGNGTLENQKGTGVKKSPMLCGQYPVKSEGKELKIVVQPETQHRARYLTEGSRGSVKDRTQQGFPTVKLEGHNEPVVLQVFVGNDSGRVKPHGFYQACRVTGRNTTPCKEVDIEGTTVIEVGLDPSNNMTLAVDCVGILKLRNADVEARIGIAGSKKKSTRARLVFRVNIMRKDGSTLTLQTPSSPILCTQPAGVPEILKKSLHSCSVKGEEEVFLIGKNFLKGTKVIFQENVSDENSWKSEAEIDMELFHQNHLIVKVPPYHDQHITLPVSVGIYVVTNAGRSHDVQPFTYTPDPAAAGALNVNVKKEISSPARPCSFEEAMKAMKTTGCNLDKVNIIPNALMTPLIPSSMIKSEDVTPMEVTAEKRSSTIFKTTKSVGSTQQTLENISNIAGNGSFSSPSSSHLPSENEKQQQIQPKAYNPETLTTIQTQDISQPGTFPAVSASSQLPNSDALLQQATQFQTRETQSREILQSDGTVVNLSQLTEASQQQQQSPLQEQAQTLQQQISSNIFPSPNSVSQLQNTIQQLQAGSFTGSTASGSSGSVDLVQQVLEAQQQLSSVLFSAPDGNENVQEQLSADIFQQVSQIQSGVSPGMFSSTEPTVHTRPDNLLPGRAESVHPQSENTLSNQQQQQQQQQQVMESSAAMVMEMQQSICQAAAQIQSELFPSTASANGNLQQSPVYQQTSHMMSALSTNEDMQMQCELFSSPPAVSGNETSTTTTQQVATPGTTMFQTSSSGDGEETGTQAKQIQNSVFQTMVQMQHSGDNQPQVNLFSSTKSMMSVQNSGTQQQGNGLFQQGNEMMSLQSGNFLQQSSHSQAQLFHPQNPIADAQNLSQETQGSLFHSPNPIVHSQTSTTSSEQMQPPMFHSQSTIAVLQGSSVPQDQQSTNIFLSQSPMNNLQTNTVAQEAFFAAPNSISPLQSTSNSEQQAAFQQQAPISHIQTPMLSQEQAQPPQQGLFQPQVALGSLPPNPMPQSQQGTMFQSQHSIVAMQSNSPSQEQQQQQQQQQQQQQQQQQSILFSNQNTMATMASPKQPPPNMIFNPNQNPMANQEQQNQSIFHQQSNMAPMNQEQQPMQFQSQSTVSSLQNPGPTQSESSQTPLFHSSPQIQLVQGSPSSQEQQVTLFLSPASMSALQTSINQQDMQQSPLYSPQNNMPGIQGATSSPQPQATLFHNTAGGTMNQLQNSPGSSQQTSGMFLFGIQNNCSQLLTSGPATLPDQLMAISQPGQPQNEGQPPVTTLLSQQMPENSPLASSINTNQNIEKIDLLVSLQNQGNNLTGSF
UniProt P51970, whole entry, looked up: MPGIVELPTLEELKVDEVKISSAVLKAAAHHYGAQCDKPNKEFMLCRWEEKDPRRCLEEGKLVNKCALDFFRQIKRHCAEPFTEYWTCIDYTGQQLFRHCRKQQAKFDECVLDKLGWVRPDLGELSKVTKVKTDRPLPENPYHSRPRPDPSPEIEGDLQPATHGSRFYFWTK
UniProt Q9NYR9: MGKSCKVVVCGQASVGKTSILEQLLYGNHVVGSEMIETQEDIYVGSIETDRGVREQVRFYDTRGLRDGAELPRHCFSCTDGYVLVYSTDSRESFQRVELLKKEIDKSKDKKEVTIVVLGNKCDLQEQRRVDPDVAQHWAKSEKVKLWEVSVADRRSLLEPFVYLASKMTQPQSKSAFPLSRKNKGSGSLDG
UniProt Q9UGV2: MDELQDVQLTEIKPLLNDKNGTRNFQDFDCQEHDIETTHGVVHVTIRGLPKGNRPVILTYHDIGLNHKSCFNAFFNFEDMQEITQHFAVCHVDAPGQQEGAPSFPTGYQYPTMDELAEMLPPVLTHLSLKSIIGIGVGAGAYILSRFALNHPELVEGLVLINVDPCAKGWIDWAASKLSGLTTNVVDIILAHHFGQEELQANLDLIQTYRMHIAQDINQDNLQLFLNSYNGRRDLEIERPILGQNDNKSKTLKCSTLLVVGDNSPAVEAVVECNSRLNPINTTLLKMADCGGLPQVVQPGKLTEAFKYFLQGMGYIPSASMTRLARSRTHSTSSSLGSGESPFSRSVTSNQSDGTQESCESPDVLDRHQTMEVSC

This is one part of the list. The data scatter; read single values as rough.

Compound in the assay: ClCC(=O)N[C@H]1CCCc2ccccc12
Description: log2 mean competition ratio of IA-DTB cysteine labelling (DMSO/compound) (log2 ratio); higher = stronger cysteine engagement by compound. As to conditions: 200 µM; treatment time: 4 h; cell line lysate: HEK293T. The procedure:
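IA-DTB competitive cysteine chemoproteomics in HEK293T RIPA lysate. Lysates were treated with compound 29 or 30 at 50 or 200 µM for 4 h, then IA-DTB (500 µM, 1 h), trypsin-digested, NeutrAvidin-enriched and analysed by diaPASEF. Competition ratio = intensity DMSO / intensity compound (n=4 treated, n=64 DMSO); binding: mean log2 CR ≥ 1 and p ≤ 0.05 plus QC filters. Target is the cysteine site.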
In the case of NET1 C556 (UniProt Q7Z628), the “log2 mean competition ratio” value was determined as 0.278.

In the case of NCOA3 C769 (UniProt Q9Y6Q9), the “log2 mean competition ratio” value is -0.0982.

Take NIFK C118 (UniProt Q9BYG3): the “log2 mean competition ratio” value is -0.172.

Consider NHSL1 C1471 (UniProt Q5SYE7), for which the “log2 mean competition ratio” value was -0.438.

NOCT C302 (UniProt Q9UK39): the “log2 mean competition ratio” value was -0.0224.

NFAT5 C108 (UniProt O94916): the “log2 mean competition ratio” value was -0.289.

As for NDUFA8 C110 (UniProt P51970), the “log2 mean competition ratio” value was 0.409.

Regarding NKIRAS2 C10 (UniProt Q9NYR9), the “log2 mean competition ratio” value turned out to be 0.0399.

As to NDRG3 C290 (UniProt Q9UGV2), the “log2 mean competition ratio” value came out at 0.202.

Turning to NINL C1009, the “log2 mean competition ratio” value is -0.395.
